According to the supplement of paper PMC10849652:
The list shows a part of the results.

Protein sequences, listed by entry. Tags and fused reporters are not part of them. Lines headed by an entry give the natural chain unless they say otherwise; changes in a name come on top.
UniProt Q8IV38: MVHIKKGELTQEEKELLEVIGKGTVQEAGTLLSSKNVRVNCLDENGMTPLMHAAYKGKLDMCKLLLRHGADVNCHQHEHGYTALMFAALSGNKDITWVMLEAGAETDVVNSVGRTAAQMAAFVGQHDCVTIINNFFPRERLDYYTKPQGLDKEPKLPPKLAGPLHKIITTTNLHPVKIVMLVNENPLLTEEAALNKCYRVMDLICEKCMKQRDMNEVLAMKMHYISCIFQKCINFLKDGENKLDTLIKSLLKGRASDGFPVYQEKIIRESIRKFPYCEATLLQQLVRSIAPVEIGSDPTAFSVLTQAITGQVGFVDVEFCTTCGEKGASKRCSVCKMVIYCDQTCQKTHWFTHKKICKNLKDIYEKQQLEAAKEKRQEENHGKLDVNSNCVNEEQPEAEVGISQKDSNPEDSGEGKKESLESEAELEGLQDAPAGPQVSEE
UniProt Q8IZ07: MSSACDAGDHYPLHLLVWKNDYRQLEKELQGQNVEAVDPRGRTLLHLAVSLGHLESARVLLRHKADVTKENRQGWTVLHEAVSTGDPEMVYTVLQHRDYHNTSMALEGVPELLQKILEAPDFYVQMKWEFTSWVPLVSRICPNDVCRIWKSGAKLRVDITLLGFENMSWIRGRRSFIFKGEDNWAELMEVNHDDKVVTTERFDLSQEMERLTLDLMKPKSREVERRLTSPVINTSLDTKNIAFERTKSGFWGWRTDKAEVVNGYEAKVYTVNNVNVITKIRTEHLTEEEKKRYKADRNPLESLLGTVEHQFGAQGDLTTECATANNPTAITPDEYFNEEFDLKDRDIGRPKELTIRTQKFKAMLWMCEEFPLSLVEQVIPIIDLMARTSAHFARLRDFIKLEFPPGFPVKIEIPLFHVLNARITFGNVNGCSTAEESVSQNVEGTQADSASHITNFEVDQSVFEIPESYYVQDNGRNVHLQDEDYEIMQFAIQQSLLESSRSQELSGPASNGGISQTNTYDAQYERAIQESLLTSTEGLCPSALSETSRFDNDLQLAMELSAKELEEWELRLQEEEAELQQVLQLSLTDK
UniProt Q9UJX5, whole entry, looked up: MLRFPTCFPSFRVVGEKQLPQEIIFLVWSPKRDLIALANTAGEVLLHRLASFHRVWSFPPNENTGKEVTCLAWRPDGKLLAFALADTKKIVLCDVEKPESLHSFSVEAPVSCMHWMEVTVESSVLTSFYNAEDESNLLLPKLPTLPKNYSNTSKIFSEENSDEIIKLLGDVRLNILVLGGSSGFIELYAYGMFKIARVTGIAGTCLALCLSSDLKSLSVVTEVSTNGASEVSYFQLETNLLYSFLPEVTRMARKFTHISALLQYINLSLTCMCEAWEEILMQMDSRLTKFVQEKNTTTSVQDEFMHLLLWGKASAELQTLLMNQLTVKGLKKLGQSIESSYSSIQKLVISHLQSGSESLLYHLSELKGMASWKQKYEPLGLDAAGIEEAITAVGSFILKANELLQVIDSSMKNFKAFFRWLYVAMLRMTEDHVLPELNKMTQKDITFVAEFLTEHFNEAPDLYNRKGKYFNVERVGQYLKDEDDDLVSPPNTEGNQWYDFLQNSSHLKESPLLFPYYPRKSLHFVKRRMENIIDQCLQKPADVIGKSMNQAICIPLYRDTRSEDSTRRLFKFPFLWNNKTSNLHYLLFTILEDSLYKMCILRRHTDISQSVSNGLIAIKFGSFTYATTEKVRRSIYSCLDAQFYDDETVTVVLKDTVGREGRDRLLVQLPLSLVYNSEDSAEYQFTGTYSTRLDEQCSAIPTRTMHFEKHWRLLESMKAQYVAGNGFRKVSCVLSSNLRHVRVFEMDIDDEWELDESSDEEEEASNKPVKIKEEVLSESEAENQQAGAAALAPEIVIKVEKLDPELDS
UniProt Q8IWZ3: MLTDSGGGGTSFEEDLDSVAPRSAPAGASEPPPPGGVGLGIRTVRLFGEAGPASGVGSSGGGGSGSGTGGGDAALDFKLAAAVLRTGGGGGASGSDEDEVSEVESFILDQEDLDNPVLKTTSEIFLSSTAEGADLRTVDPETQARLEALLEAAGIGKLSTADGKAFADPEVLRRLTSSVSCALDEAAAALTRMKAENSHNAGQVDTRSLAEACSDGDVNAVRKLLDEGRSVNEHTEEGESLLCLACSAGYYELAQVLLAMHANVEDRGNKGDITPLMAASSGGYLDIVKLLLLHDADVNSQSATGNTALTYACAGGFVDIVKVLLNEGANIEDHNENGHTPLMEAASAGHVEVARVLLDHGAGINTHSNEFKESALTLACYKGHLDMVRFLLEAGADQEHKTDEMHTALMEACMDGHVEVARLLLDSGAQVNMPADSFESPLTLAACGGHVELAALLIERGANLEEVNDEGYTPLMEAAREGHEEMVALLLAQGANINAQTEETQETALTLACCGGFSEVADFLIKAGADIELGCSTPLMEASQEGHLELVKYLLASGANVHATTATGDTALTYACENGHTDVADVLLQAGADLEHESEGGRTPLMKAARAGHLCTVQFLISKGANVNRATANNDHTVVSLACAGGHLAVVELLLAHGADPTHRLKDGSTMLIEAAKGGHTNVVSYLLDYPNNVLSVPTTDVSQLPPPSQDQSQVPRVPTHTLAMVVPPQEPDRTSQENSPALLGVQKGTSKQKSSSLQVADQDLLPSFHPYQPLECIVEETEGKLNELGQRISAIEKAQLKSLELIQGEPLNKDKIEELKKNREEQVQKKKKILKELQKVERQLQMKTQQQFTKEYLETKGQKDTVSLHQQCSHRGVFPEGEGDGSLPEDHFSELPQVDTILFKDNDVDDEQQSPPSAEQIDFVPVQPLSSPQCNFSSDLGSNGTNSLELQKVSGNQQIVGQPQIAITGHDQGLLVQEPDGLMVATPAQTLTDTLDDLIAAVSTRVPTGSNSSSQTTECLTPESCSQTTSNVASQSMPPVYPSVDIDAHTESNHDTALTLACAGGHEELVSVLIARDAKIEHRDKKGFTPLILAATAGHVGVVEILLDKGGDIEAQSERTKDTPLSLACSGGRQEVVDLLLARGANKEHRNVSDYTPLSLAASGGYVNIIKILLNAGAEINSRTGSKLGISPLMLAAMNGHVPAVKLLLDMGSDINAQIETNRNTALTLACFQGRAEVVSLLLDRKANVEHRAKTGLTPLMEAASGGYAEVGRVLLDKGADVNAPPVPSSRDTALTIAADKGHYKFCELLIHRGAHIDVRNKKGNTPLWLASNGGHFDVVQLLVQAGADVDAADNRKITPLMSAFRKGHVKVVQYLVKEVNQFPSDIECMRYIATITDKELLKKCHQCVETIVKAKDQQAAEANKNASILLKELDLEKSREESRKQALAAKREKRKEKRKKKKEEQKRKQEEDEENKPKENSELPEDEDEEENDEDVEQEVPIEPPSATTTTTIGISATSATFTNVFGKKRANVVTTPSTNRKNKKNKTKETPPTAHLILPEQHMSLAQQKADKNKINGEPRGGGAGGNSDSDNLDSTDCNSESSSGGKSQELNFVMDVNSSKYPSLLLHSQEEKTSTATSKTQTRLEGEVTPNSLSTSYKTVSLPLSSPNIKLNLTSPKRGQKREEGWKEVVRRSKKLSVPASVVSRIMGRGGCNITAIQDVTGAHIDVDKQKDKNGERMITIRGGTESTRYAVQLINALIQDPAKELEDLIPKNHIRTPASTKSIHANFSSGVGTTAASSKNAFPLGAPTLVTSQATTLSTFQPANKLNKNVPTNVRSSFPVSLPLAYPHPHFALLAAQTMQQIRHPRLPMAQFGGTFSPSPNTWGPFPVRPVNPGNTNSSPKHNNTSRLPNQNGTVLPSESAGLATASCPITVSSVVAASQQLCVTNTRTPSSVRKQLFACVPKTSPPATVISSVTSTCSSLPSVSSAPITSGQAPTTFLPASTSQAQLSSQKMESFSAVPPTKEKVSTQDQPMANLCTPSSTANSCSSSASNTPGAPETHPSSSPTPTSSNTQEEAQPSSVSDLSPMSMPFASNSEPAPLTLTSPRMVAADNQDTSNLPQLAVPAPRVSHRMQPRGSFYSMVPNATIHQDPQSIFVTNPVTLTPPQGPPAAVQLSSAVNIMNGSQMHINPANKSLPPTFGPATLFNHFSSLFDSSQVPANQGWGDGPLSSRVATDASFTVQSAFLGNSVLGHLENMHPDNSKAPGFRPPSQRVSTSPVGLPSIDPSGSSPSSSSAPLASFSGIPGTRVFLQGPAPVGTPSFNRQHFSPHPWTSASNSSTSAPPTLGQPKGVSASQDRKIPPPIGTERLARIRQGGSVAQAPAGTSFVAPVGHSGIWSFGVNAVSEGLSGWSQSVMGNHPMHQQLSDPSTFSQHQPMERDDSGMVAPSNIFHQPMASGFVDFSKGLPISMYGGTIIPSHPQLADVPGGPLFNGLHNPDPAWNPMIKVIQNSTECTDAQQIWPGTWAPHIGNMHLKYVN
UniProt Q8IZ83: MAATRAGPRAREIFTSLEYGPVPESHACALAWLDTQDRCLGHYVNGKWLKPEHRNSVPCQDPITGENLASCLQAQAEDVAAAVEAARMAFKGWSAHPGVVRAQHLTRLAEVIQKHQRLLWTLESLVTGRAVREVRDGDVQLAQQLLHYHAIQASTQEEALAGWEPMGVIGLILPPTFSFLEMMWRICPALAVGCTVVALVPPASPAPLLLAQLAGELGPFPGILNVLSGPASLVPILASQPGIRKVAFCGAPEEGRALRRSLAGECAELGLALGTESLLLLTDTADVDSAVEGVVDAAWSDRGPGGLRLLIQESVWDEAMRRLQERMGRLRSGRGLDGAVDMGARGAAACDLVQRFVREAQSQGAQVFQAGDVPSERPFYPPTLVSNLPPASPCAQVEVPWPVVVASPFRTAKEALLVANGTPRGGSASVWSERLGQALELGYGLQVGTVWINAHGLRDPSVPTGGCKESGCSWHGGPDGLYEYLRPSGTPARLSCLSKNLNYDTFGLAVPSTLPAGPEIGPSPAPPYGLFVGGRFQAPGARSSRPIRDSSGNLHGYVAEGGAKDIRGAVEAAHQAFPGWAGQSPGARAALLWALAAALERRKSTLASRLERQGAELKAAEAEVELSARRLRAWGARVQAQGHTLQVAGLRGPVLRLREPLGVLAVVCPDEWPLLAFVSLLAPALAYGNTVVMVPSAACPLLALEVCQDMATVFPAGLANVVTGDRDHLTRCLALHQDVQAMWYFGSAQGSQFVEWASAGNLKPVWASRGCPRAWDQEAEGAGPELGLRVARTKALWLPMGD
UniProt Q9Y672: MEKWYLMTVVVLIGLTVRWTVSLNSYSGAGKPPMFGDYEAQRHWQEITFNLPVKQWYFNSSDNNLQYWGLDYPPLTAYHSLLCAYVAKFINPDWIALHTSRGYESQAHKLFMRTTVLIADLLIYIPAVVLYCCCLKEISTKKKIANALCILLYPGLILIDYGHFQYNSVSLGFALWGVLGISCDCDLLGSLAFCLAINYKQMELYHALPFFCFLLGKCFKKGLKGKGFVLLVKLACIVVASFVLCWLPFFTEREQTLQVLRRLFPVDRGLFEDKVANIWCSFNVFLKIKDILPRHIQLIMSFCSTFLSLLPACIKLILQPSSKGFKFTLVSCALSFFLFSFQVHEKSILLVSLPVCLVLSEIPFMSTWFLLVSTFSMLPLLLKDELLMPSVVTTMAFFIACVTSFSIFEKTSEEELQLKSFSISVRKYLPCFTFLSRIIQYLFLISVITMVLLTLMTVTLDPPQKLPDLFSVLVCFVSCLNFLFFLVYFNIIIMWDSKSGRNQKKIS
UniProt P20073: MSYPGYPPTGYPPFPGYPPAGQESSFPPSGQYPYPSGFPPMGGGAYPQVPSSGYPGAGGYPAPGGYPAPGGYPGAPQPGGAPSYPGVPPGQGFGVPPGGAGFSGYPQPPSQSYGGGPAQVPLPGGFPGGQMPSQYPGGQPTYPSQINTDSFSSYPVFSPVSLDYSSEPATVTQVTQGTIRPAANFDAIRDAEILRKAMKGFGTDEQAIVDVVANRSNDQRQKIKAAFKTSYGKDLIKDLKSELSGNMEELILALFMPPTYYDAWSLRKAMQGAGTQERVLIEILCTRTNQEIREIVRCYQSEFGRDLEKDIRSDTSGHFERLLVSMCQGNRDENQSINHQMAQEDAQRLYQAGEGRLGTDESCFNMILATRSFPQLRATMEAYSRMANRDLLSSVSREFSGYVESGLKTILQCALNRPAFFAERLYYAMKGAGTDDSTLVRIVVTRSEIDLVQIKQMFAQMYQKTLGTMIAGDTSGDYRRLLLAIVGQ
UniProt Q6P6B7: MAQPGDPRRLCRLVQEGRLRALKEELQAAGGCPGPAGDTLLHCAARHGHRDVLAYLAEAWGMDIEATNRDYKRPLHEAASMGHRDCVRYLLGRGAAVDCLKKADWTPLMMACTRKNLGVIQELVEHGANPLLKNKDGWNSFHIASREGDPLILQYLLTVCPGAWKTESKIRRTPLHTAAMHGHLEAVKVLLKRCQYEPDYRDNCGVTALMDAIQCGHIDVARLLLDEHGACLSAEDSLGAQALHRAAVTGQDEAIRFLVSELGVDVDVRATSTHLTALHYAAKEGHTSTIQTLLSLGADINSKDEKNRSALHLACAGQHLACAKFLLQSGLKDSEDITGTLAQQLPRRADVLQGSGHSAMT

Assays:
Assay in all cases: log2 fold change, soluble protein after heating vs DMSO (PISA); higher = thermal stabilisation; K562 lysate, 10 uM; active = over 0.2 and 3.5 SD of the protein, either way, in both replicates (recomputed)
[1] = compound: CS(=O)(=O)CCNCc1ccc(-c2ccc3ncnc(Nc4ccc(OCc5cccc(F)c5)c(Cl)c4)c3c2)o1 [lapatinib]
In short: (§1)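 Log-two fold change in thermal stability relative to solvent controls is reported from duplicates. For each sample, crude K562 extract from dounce-homogenised pellets in PBS pH 7.4 with 1 mM MgCl2, at 1 mg/mL protein, was treated with 10 μM compound for 30 min. Aliquots heated for 3 min across 48°C-58°C were pooled, brought to 0.5% NP-40 at 4°C and cleared at 21,000xg for 90 min. The supernatant was quantified by TMTpro 16plex LC-MS/MS with channel sums equalised.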

[2] = compound: CS(=O)(=O)N1CCN(Cc2cc3nc(-c4cccc5[nH]ncc45)nc(N4CCOCC4)c3s2)CC1 [pictilisib]
In short: as §1

[3] = compound: C[C@@H](Oc1cc(-c2cnn(C3CCNCC3)c2)cnc1N)c1c(Cl)ccc(F)c1Cl [crizotinib]
In short: as §1

[4] = compound: C[C@H](C1=CC=C(C=C1)C(=O)NC2=C3C=CNC3=NC=C2)N
In short: as §1

[5] = compound: C[C@H](Nc1ncnc2nc[nH]c12)c1cc2cccc(Cl)c2c(=O)n1-c1ccccc1 [duvelisib]
In short: as §1

[6] = compound: Cc1cc(Nc2cc(CN3CCOCC3)c3nc(C)c(Cc4ccc(Cl)cc4F)n3n2)n[nH]1 [gandotinib]
In short: as §1

[7] = compound: Cc1cc(Nc2cc(N3CCN(C)CC3)nc(Sc3ccc(NC(=O)C4CC4)cc3)n2)n[nH]1 [tozasertib]
In short: as §1

[8] = compound: Cc1ccc(-n2nc(C(C)(C)C)cc2NC(=O)Nc2ccc(OCCN3CCOCC3)c3ccccc23)cc1 [doramapimod]
In short: as §1

[9] = compound: Cc1ccc(NC(=O)c2ccc(CN3CC[C@H](N(C)C)C3)c(C(F)(F)F)c2)cc1Nc1nccc(-c2cncnc2)n1 [bafetinib]
In short: as §1

[10] = compound: Cc1cccc(CC(=O)N2CCc3c2ccc(-c2cn(C)c4ncnc(N)c24)c3F)n1
In short: as §1

[11] = compound: Cc1cn(-c2cc(NC(=O)c3ccc(C)c(Nc4nccc(-c5cccnc5)n4)c3)cc(C(F)(F)F)c2)cn1 [nilotinib]
In short: as §1

[12] = compound: Cc1nc(Nc2n[nH]c3c2CN(C(=O)N[C@H](CN(C)C)c2ccccc2)C3(C)C)c2sccc2n1
In short: as §1

[13] = compound: Cc1nc(Nc2ncc(C(=O)Nc3c(C)cccc3Cl)s2)cc(N2CCN(CCO)CC2)n1 [dasatinib]
In short: as §1

[14] = compound: Cc1ncc(-c2ccnc(Nc3ccc(S(C)(=O)=O)cc3)n2)n1C(C)C
In short: as §1

[15] = compound: Cn1cc(-c2ccc3c(c2)CCN3C(=O)Cc2cccc(C(F)(F)F)c2)c2c(N)ncnc21
In short: as §1

[16] = compound: Cn1cc(CNCC2CCN(c3ncc(C(=O)NO)cn3)CC2)c2ccccc21 [quisinostat]
In short: as §1

[17] = compound: Cn1cncc1[C@@](N)(c1ccc(Cl)cc1)c1ccc2c(c1)c(-c1cccc(Cl)c1)cc(=O)n2C [tipifarnib]
In short: as §1

[18] = compound: NC(=O)Nc1cc(-c2cccc(F)c2)sc1C(=O)N[C@H]1CCCNC1
In short: as §1

[19] = compound: NC(=O)c1cnc(N[C@@H]2CCCC[C@@H]2N)nc1Nc1cccc(-n2nccn2)c1
In short: as §1

[20] = compound: NC1(c2ccc(-c3nc4ccn5c(=O)[nH]nc5c4cc3-c3ccccc3)cc2)CCC1
In short: as §1

Measured: log2 fold change

ANKMY2 (UniProt Q8IV38)
inactive: [1] 0.001 | [2] -0.032 | [3] -0.001 | [4] 0.113 | [5] -0.007 | [6] -0.123 | [7] 0.002 | [8] -0.003 | [9] -0.007 | [10] -0.092 | [11] 0.04 | [12] 0.002 | [13] -0.011 | [14] 0.001 | [15] 0.008 | [16] -0.009 | [17] -0.005 | [18] 0.028 | [19] -0.028 | [20] 0.003

ANKRD13A (UniProt Q8IZ07)
inactive: [1] 0.017 | [2] -0.071 | [3] -0.031 | [4] -0.04 | [5] -0.022 | [6] -0.015 | [7] -0.009 | [8] 0.028 | [9] -0.01 | [10] 0.016 | [11] -0.069 | [12] -0.002 | [13] 0.036 | [14] -0.032 | [15] 0.023 | [16] -0.039 | [17] 0.011 | [18] 0.018 | [19] 0.012 | [20] 0.004

AP2S1 (UniProt P53680)
inactive: [1] -0.008 | [2] 0.002 | [3] 0 | [4] -0.082 | [5] 0.023 | [6] 0.046 | [7] 0.062 | [8] 0.053 | [9] -0.046 | [10] -0.005 | [11] -0.075 | [12] 0.029 | [13] -0.007 | [14] 0.024 | [15] 0.032 | [16] 0.001 | [17] 0.018 | [18] -0.011 | [19] 0.017 | [20] -0.008

ALG2 (UniProt Q9H553)
inactive: [1] 0.003 | [2] -0.229 | [3] 0.015 | [4] -0.053 | [5] 0.014 | [6] -0.131 | [7] 0.127 | [8] -0.034 | [9] 0.024 | [10] 0.015 | [11] -0.017 | [12] 0.031 | [13] -0.01 | [14] -0.041 | [15] -0.023 | [16] -0.052 | [17] -0.06 | [18] -0.012 | [19] 0.003 | [20] -0.049

ANAPC4 isoform 3 (UniProt Q9UJX5)
inactive: [1] 0 | [2] -0.043 | [3] -0.047 | [4] -0.037 | [5] 0.021 | [6] 0.039 | [7] 0.019 | [8] 0.035 | [9] -0.038 | [10] 0.015 | [11] 0.005 | [12] 0.004 | [13] -0.065 | [14] -0.018 | [15] 0.026 | [16] -0.052 | [17] -0.024 | [18] 0.002 | [19] -0.012 | [20] -0.039

2 neighbouring records out of the list so far, for reference:
ALG2 (UniProt Q9H553)
inactive: [1] 0.003 | [2] -0.229 | [3] 0.015 | [4] -0.053 | [5] 0.014 | [6] -0.131 | [7] 0.127 | [8] -0.034 | [9] 0.024 | [10] 0.015 | [11] -0.017 | [12] 0.031 | [13] -0.01 | [14] -0.041 | [15] -0.023 | [16] -0.052 | [17] -0.06 | [18] -0.012 | [19] 0.003 | [20] -0.049

ANAPC4 isoform 3 (UniProt Q9UJX5)
inactive: [1] 0 | [2] -0.043 | [3] -0.047 | [4] -0.037 | [5] 0.021 | [6] 0.039 | [7] 0.019 | [8] 0.035 | [9] -0.038 | [10] 0.015 | [11] 0.005 | [12] 0.004 | [13] -0.065 | [14] -0.018 | [15] 0.026 | [16] -0.052 | [17] -0.024 | [18] 0.002 | [19] -0.012 | [20] -0.039

Next part:

ALYREF (UniProt Q86V81)
inactive: [1] 0.02 | [2] 0.027 | [3] 0.051 | [4] 0.13 | [5] -0.006 | [6] -0.011 | [7] -0.035 | [8] -0.021 | [9] 0.047 | [10] -0.065 | [11] -0.162 | [12] 0.04 | [13] -0.016 | [14] -0.122 | [15] 0.014 | [16] 0.064 | [17] -0.095 | [18] -0.023 | [19] -0.013 | [20] -0.026

ANKRD52 (UniProt Q8NB46)
inactive: [1] -0.133 | [2] -0.036 | [3] -0.11 | [4] -0.004 | [5] 0.01 | [6] 0.012 | [7] 0 | [8] 0.001 | [9] -0.071 | [10] 0.034 | [11] 0.041 | [12] 0.003 | [13] -0.048 | [14] -0.026 | [15] -0.045 | [16] -0.037 | [17] -0.017 | [18] 0.005 | [19] -0.056 | [20] -0.028

ANKHD1 isoform 6 (UniProt Q8IWZ3)
inactive: [1] -0.002 | [2] -0.021 | [3] -0.028 | [4] -0.129 | [5] 0.028 | [6] 0.096 | [7] 0.01 | [8] -0.069 | [9] -0.043 | [10] 0.155 | [11] -0.02 | [12] -0.013 | [13] -0.024 | [14] 0.019 | [15] 0.019 | [16] -0.049 | [17] -0.029 | [18] 0.044 | [19] 0.016 | [20] -0.014

AP2A1 (UniProt O95782)
inactive: [1] -0.014 | [2] 0.019 | [3] -0.012 | [4] -0.1 | [5] 0.002 | [6] 0.102 | [7] 0.016 | [8] 0.043 | [9] -0.009 | [10] 0.009 | [11] -0.008 | [12] 0.011 | [13] -0.015 | [14] 0.027 | [15] -0.023 | [16] -0.027 | [17] 0.001 | [18] -0.027 | [19] 0 | [20] -0.006

AKT1 (UniProt P31749)
active: [20] 0.669
inactive: [1] 0.054 | [2] 0.002 | [3] -0.049 | [4] -0.034 | [5] -0.008 | [6] -0.048 | [7] 0 | [8] 0.031 | [9] -0.044 | [10] 0.033 | [11] -0.05 | [12] 0.012 | [13] -0.014 | [14] -0.01 | [15] 0.001 | [16] -0.1 | [17] 0.025 | [18] 0 | [19] -0.007

ALDH16A1 (UniProt Q8IZ83)
inactive: [1] 0.019 | [2] -0.028 | [3] -0.008 | [4] -0.037 | [5] 0.015 | [6] 0.025 | [7] 0.019 | [8] 0.005 | [9] 0.04 | [10] 0.018 | [11] 0.028 | [12] 0.019 | [13] -0.035 | [14] -0.023 | [15] -0.005 | [16] -0.008 | [17] -0.023 | [18] 0 | [19] -0.026 | [20] 0.006

ALG6 (UniProt Q9Y672)
inactive: [1] -0.049 | [2] -0.004 | [3] -0.04 | [4] -0.105 | [5] 0.045 | [6] -0.005 | [7] -0.003 | [8] -0.016 | [9] -0.05 | [10] 0.093 | [11] 0.033 | [12] -0.03 | [13] -0.112 | [14] -0.032 | [15] -0.043 | [16] -0.013 | [17] 0 | [18] 0.058 | [19] 0.075 | [20] -0.041

ANXA7 (UniProt P20073)
inactive: [1] 0.002 | [2] -0.003 | [3] -0.011 | [4] -0.025 | [5] -0.052 | [6] -0.005 | [7] -0.016 | [8] 0.013 | [9] 0.05 | [10] -0.016 | [11] 0.001 | [12] -0.005 | [13] 0.014 | [14] -0.003 | [15] -0.01 | [16] -0.01 | [17] 0.03 | [18] -0.003 | [19] -0.012 | [20] -0.008

ANKRD29 (UniProt Q8N6D5)
inactive: [1] -0.117 | [2] -0.071 | [3] -0.26 | [4] -0.284 | [5] 0.052 | [6] 0.315 | [7] -0.04 | [8] 0.036 | [9] 0.134 | [10] 0.253 | [11] -0.015 | [12] -0.139 | [13] -0.04 | [14] 0.032 | [15] 0.034 | [16] -0.549 | [17] -0.321 | [18] 0.116 | [19] 0.043 | [20] -0.086

ANKRD16 (UniProt Q6P6B7)
inactive: [1] -0.084 | [2] 0.147 | [3] -0.046 | [4] -0.165 | [5] 0.048 | [6] -0.084 | [7] -0.094 | [8] 0.006 | [9] -0.055 | [10] 0.133 | [11] 0.073 | [12] -0.038 | [13] -0.028 | [14] -0.011 | [15] -0.02 | [16] -0.141 | [17] 0.2 | [18] 0.054 | [19] -0.371

AMD1 (UniProt P17707)
inactive: [1] -0.125 | [2] 0.056 | [3] 0.035 | [4] -0.099 | [5] 0.12 | [6] 0.107 | [7] 0.05 | [8] 0.316 | [9] -0.07 | [10] 0.048 | [11] -0.05 | [12] -0.04 | [13] -0.031 | [14] -0.001 | [15] 0.055 | [16] -0.145 | [17] -0.005 | [18] 0.151 | [19] 0.229 | [20] -0.022
